# Values from PubChem BioAssay AID1259276 (Sanger Institute, 2017).
# Purpose: 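Find kinases whose silencing cuts viability alone or combined with BYL719, cetuximab or trametinib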 (primary screen)
# System: human C2BBe1 colorectal cancer cells
# Knock-down reagent: siRNA pool against human genes
# Conditions: DMSO vehicle, or one anchor drug: BYL719 at 1 µM, cetuximab at 5 µg/ml, or trametinib at 10 nM; exposure length not stated
# Measured: 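Viability after knock-down relative to non-targeting siRNA controls, averaged across replicates, given as ratio and control-derived robust z-score, with per-drug synergy scores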
# Scale: viability robust z-score, siRNA alone and viability vs control, siRNA alone: higher = more viable cells after knock-down; synergy score with BYL719: higher = stronger combined killing with BYL719; synergy score with cetuximab: higher = stronger combined killing with cetuximab
# Hit rule: 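Called essential when knock-down alone gives a viability robust z-score below -3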
# Meaning of the calls: active = essential (siRNA alone); inactive = no change (siRNA alone)
# Shown is one part, drawn at random, of 794 reagents. Of all reagents, 24 (3%) are marked active. 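Calls come only from the siRNA-alone arm; drug synergy scores do not affect them.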 No viability above 1 is reported: the scale is capped. Not all columns of the deposit are shown. No sequences are given here. The record does not give: the amount of reagent, the time to read-out.
The first 2 entries, to show the layout:
gene,"viability robust z-score, siRNA alone","viability vs control, siRNA alone",synergy score with BYL719,synergy score with cetuximab,call
TLK1,0.329,0.991,0.000335,0.151,inactive
STK36,0.472,1,0.12,-0.00946,inactive

Main list, from the start:
gene,"viability robust z-score, siRNA alone","viability vs control, siRNA alone",synergy score with BYL719,synergy score with cetuximab,call
TLK1,0.329,0.991,0.000335,0.151,inactive
STK36,0.472,1,0.12,-0.00946,inactive
NEK2,-2.32,0.824,-0.0747,-0.18,inactive
TNK1,0.472,1,0.00407,-0.0115,inactive
ADCK5,-0.85,0.917,-0.0393,-0.0938,inactive
DLG4,0.472,1,0.204,0.166,inactive
MLKL,0.472,1,-0.0565,-0.0115,inactive
GSK3A,-1.56,0.872,0.102,-0.00363,inactive
PASK,0.472,1,-0.142,-0.0115,inactive
DGUOK,-0.765,0.922,0.22,0.0169,inactive
CAMK2G,0.472,1,0.0766,0.0633,inactive
POMK,0.472,1,-0.139,-0.0115,inactive
DLG1,-0.641,0.93,-0.0246,0.164,inactive
PKM,0.472,1,-0.142,0.00609,inactive
GALK1,0.472,1,0.0461,-0.0115,inactive
PCK1,-2.2,0.832,0.0294,-0.178,inactive
CDK19,0.3,0.989,-0.0275,0.0813,inactive
DDR2,-1.72,0.862,-0.00107,-0.148,inactive
CDKL2,0.472,1,0.0983,0.173,inactive
NEK8,0.472,1,0.00505,0.114,inactive
NTRK2,-0.262,0.954,-0.141,-0.0572,inactive
ATR,0.472,1,-0.142,-0.0115,inactive
RIPK3,0.472,1,-0.0442,-0.0115,inactive
DLG3,0.472,1,0.0516,-0.0115,inactive
DGKH,0.472,1,-0.0376,-0.0115,inactive
AMER1,0.472,1,-0.142,-0.0115,inactive
EPHB1,0.472,1,0.0274,0.19,inactive
EGFR,-0.353,0.948,0.0555,-0.0566,inactive
PIP5KL1,0.472,1,-0.142,-0.0115,inactive
AAK1,0.472,1,-0.0654,0.175,inactive
GRK6,0.472,1,0.0167,-0.00611,inactive
MAP3K14,0.472,1,-0.00165,0.109,inactive
UCK1,0.472,1,-0.0884,0.111,inactive
MAPK3,-2.61,0.806,-0.276,0.0379,inactive
